Sequences and labels used below:
B1: NRPE5c (protein, UniProt Q9M1H8 1-233)
chain: MEETMAEEGCCENVESTFDDGTNCISKTEDTGGIESKRFYLARTTAFEMLRDRGYEVNEAELSLTLSEFRSVFGEKPELERLRICVPLRSDPKKKILVVFMGTEPITVKSVRALHIQISNNVGLHAMILVLQSKMNHFAQKALTTFPFTVETFPIEDLLVNITKHIQQPKIEILNKEEKEQLLRKHALEDKQLPYLQEKDSFVRYYGLKKKQVVKITYSKEPVGDFVTYRCII
B2: NRPE7 (protein, UniProt A6QRA1 1-178)
chain: MFLKVQLPWNVMIPAENMDAKGLMLKRAILVELLEAFASKKATKELGYYVAVTTLDKIGEGKIREHTGEVLFPVMFSGMTFKIFKGEIIHGVVHKVLKHGVFMRCGPIENVYLSYTKMPDYKYIPGENPIFMNEKTSRIQVETTVRVVVIGIKWMEVEREFQALASLEGDYLGPLSEE
B3: NRPE5a (protein, UniProt Q9M1J2 1-222)
chain: MEVKGKETASVLCLSKYVDLSSEESHRYYLARRNGLQMLRDRGYEVSDEDINLSLHDFRTVYGERPDVDRLRISALHRSDSTKKVKIVFFGTSMVKVNAIRSVVADILSQETITGLILVLQNHVTNQALKAIELFSFKVEIFQITDLLVNITKHSLKPQHQVLNDEEKTTLLKKFSIEEKQLPRISKKDAIVRYYGLEKGQVVKVNYRGELTESHVAFRCVW

Chains of the proteins cited; added tags and fusions are not shown.
UniProt Q5D869: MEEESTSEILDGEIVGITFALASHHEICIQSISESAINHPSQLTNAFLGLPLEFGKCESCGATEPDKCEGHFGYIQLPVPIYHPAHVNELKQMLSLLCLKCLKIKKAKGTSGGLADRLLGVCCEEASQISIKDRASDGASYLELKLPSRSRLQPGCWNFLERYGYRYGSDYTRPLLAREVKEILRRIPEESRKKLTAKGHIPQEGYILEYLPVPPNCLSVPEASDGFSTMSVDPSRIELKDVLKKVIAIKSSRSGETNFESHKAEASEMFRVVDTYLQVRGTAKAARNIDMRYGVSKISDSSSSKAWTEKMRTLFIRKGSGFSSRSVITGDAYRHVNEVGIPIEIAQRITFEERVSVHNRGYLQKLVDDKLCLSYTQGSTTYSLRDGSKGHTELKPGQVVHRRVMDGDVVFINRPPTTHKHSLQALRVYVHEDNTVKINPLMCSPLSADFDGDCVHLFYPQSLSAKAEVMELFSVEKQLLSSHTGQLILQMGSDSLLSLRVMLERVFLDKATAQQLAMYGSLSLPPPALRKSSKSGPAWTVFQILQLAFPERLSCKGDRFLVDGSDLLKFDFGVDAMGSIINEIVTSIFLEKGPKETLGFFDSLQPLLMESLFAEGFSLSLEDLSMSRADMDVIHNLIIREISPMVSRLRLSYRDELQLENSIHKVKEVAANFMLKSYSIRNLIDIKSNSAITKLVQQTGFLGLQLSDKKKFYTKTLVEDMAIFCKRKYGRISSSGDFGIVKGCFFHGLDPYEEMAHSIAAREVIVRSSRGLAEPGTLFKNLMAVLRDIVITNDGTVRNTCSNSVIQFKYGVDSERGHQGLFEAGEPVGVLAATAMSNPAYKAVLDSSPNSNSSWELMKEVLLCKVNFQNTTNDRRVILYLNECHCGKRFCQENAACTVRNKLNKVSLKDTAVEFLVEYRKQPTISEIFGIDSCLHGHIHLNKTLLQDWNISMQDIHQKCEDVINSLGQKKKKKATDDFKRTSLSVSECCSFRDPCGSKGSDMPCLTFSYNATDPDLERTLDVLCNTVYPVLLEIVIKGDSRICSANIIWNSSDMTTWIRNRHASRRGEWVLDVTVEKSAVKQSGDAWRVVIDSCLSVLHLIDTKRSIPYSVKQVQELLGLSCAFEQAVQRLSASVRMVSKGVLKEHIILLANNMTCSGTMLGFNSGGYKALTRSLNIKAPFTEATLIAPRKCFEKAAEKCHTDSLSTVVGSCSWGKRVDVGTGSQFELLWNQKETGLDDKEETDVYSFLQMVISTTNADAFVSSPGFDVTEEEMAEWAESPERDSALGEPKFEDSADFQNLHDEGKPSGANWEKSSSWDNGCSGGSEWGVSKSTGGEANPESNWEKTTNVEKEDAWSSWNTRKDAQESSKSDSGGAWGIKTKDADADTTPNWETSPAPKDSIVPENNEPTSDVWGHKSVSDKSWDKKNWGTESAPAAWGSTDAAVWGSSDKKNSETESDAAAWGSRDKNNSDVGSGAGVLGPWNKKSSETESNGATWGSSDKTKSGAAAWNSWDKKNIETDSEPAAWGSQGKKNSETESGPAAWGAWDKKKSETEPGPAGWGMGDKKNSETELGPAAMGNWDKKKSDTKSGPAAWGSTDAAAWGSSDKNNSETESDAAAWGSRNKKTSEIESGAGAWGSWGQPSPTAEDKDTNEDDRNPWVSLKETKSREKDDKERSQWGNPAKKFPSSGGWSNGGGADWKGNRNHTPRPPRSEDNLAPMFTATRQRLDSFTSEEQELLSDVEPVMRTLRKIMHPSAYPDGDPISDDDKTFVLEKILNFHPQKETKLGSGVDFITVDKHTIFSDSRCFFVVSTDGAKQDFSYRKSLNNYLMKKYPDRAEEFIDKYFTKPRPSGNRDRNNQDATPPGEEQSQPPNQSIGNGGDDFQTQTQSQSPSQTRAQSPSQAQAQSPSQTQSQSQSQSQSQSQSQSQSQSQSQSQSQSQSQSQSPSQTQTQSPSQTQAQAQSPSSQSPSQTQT

No constants are given. Whether binding was seen depends on the method and setting. Binding seen in cells or lysates may run through a third protein. These calls come from enrichment with a bait or labelling near it, and not all partners need be listed.

For the experiment, the target named is NRPE1, the largest subunit of Pol V, 3xFLAG-10xHis-tagged (Arabidopsis thaliana) (UniProt Q5D869). The experiment can be described thus: affinity purification with mass spectrometry; 3xFLAG-10xHis-NRPE1 from T87 cell lysate on anti-FLAG resin, eluted with FLAG peptide, Capto Q, Superose 6; LC-MS/MS of the purified complex, performed once.
For the molecule B1, the binding entry is listed as “binds”.
Then B2, with “binds”.
Then B3, with “binds”.

For the origin of these results see PMC10229537.
